Measured values published in patent US20180036364A1 (priority 2015, published 2018).

Test: peptide synthesis
Details: coupling step

Substance: 2-(tubulysin B)hydrazinecarboxylic acid (3′nitropyridyl-2′-yl)disulfanylethyl ester
- step yield: 89% yield
